Experimental data: PubChem BioAssay AID1259305 (Sanger Institute, 2017)
The whole screen tested 160 reagents; shown is an unselected part. 96 of all reagents (60%) count as active. 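Each call covers one siRNA sequence in one cell line only; gene-level confirmation needs agreement across siRNAs and lines.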 Reagents against one gene are numbered here. Further read-outs or replicates are left out here. No sequences are given here. Not stated in the record: the amount of reagent, the time to read-out.

Test: 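Retest kinome siRNA screen hits for synergy with drugs in DIFI cells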 (follow-up of hits)
Cell system: human DIFI colorectal cancer cells
Reagent: single siRNA against human genes
Conditions: BYL719 1 µM, cetuximab 5 µg/ml or trametinib 10 nM, or DMSO vehicle, added one day after transfection; exposure time not given
Measured: 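Cell survival as a ratio to a non-targeting siRNA control pool, mean of replicates; per-drug synergy scores set knock-down plus drug against each alone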
Direction: synergy score with BYL719 and synergy score with Cetuximab and synergy score with Trametinib: higher = stronger combined killing than expected
Hit rule: 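Synergy score over 0.10 with any single drug gives a synergistic, that is synthetic lethal, call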

With KCNH8 (potassium voltage-gated channel subfamily H member 8) #1, how do the results read?
synergy score with BYL719: 0.269; synergy score with Cetuximab: 0.11; synergy score with Trametinib: 0.194; Call: active

For KCNH8 (potassium voltage-gated channel subfamily H member 8) #2, what was measured?
synergy score with BYL719: 0.199; synergy score with Cetuximab: 0.171; synergy score with Trametinib: 0.194; Call: active

What did the screen give for KCNH8 (potassium voltage-gated channel subfamily H member 8) #3?
synergy score with BYL719: -0.00749; synergy score with Cetuximab: -0.00838; synergy score with Trametinib: 0.0575; Call: inactive

Which result is listed for KCNH8 (potassium voltage-gated channel subfamily H member 8) #4?
synergy score with BYL719: 0.107; synergy score with Cetuximab: 0.167; synergy score with Trametinib: 0.228; Call: active

What is on record for IRAK1 (interleukin 1 receptor associated kinase 1) #1?
synergy score with BYL719: 0.0508; synergy score with Cetuximab: -0.0168; synergy score with Trametinib: 0.297; Call: active

With IRAK1 (interleukin 1 receptor associated kinase 1) #2, what was measured?
synergy score with BYL719: 0.0108; synergy score with Cetuximab: 0.0171; synergy score with Trametinib: -0.127; Call: inactive

With IRAK1 (interleukin 1 receptor associated kinase 1) #3, how do the results read?
synergy score with BYL719: 0.125; synergy score with Cetuximab: 0.154; synergy score with Trametinib: 0.165; Call: active

For IRAK1 (interleukin 1 receptor associated kinase 1) #4, what does the deposit list?
synergy score with BYL719: 0.328; synergy score with Cetuximab: 0.0898; synergy score with Trametinib: 0.0399; Call: active

With PFKFB3 (6-phosphofructo-2-kinase/fructose-2,6-biphosphatase 3) #1, what does the deposit list?
synergy score with BYL719: 0.0435; synergy score with Cetuximab: 0.156; synergy score with Trametinib: 0.01; Call: active

With PFKFB3 (6-phosphofructo-2-kinase/fructose-2,6-biphosphatase 3) #2, what does the deposit list?
synergy score with BYL719: 0.134; synergy score with Cetuximab: 0.243; synergy score with Trametinib: 0.26; Call: active

What is on record for PFKFB3 (6-phosphofructo-2-kinase/fructose-2,6-biphosphatase 3) #3?
synergy score with BYL719: -0.0792; synergy score with Cetuximab: 0.116; synergy score with Trametinib: -0.0858; Call: active

What did the screen give for PFKFB3 (6-phosphofructo-2-kinase/fructose-2,6-biphosphatase 3) #4?
synergy score with BYL719: 0.0178; synergy score with Cetuximab: 0.209; synergy score with Trametinib: 0.101; Call: active

Which result is listed for GTF2H1 (general transcription factor IIH subunit 1) #1?
synergy score with BYL719: 0.122; synergy score with Cetuximab: 0.113; synergy score with Trametinib: 0.0334; Call: active

What is on record for GTF2H1 (general transcription factor IIH subunit 1) #2?
synergy score with BYL719: -0.0205; synergy score with Cetuximab: 0.0649; synergy score with Trametinib: -0.0997; Call: inactive

How did the screen score GTF2H1 (general transcription factor IIH subunit 1) #3?
synergy score with BYL719: -0.113; synergy score with Cetuximab: -0.0134; synergy score with Trametinib: -0.186; Call: inactive

How did the screen score GTF2H1 (general transcription factor IIH subunit 1) #4?
synergy score with BYL719: 0.0761; synergy score with Cetuximab: -0.155; synergy score with Trametinib: -0.0246; Call: inactive

What is on record for CAMK2N1 (calcium/calmodulin dependent protein kinase II inhibitor 1) #1?
synergy score with BYL719: -0.0379; synergy score with Cetuximab: -0.131; synergy score with Trametinib: -0.0702; Call: inactive

What is on record for CAMK2N1 (calcium/calmodulin dependent protein kinase II inhibitor 1) #2?
synergy score with BYL719: 0.349; synergy score with Cetuximab: 0.0152; synergy score with Trametinib: -0.0529; Call: active

Which result is listed for CAMK2N1 (calcium/calmodulin dependent protein kinase II inhibitor 1) #3?
synergy score with BYL719: 0.127; synergy score with Cetuximab: 0.043; synergy score with Trametinib: -0.158; Call: active

How did the screen score CAMK2N1 (calcium/calmodulin dependent protein kinase II inhibitor 1) #4?
synergy score with BYL719: -0.025; synergy score with Cetuximab: -0.0622; synergy score with Trametinib: -0.086; Call: inactive

Part of the list above, limited to “synergy score with Trametinib”.
PFKFB3 (6-phosphofructo-2-kinase/fructose-2,6-biphosphatase 3) #3: -0.0858
PFKFB3 (6-phosphofructo-2-kinase/fructose-2,6-biphosphatase 3) #4: 0.101
